{
  "source": "paper PMC5557861",
  "binders": {"B1": {"name": "full-length ScWss1 (Saccharomyces cerevisiae Wss1), P38838 1-269 (enzyme)", "chain": "MKTEGIKSPSAKYHDMAGSQRIPHKNPHIQKVAVLQSKPNKEDALNLIKEIAHKVSYLMKENHFKVTNLVEFYPRDQRLLGMNVNHGSKIMLRLRCSTDEFQFLPMECIMGTMLHELTHNLFGPHDKKFYNKLDELIGRQWVIEQRGLYDTFLGNGQRLGGRANLRSNRYPMTGISTNTGIVRKRGKGVKLGSLHPEGISSIDRGNSPRELAAFAAERRYRDDRWCGETKNNKDQIISDNISSSLEVVILDDDDEVLPGDTLIEVIDLT"}},
  "target": "T1, full-length ScWss1 (Saccharomyces cerevisiae Wss1) (Saccharomyces cerevisiae S288c), P38838",
  "T1 chain": "B1 chain",
  "test": "SAXS; full-length ScWss1 in solution at 2, 4 and 6 mg/ml, data extrapolated to zero concentration; molecular mass from SAXS 35 kDa against 31 kDa from the sequence; both purified",
  "conditions": "remark: other sources report otherwise",
  "note": "Results are given in words; binding and its absence hold for the method and conditions named. Sequences can lack the tags named with a protein.",
  "data": [
    {"binder": "B1", "values": [
      {"measurement": "binding", "result": "no binding (tested: 2 mg/ml, 4 mg/ml, and 6 mg/ml)"}
    ]}
  ]
}
